Data from article PMC7819943, “Rice protein-binding microarrays: a tool to detect cis-acting elements near promoter regions in rice”.
The list shows a part of the results.

Amino acid sequences for entries named in this document (tags omitted).
UniProt Q0JBA9, entry or part of it: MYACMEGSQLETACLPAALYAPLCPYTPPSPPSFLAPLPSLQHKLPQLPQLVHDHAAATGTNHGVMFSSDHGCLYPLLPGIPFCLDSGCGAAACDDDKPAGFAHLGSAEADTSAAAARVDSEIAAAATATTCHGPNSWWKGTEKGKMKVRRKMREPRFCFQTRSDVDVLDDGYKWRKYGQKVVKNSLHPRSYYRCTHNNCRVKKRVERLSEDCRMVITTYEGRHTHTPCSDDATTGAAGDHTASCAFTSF

Each sequence was assayed against OsWRKY34 (Oryza sativa, UniProt Q0JBA9 1-250) (assay: protein-binding microarray (RPBM); PBS, 2% BSA, 51.3 ng/ul salmon testes DNA, 50 uM zinc acetate, 200 nM TF, 25 C, 1 h; high values mean tight binding). Conditions: protein: recombinant; tags: N-terminal polyhistidine and DsRed monomer fusion (pET32a); label: CyDye5-dUTP incorporated in the synthesized complementary strand; 3' TTTTT single-stranded linker to array surface; dsDNA, one strand shown.
How it was run: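 The binding signal is fluorescence intensity per array feature (arbitrary units). Readings came from an Axon 4000B scanner after a washed, 2% BSA-blocked, double-stranded custom Agilent array had been incubated for 1 h at 25 °C with 200 nM protein and 50 µM zinc acetate. The protein was a Ni–NTA-purified transcription factor fused N-terminally to polyhistidine and DsRed, expressed in E. coli BL21-CodonPlus.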

Sequence | binding signal
CATGACCGGCCACCACCATTGCCACCGGCCGATCTCCTCTCGGAGTCACCTAGTGCAG | 10300 fluorescence intensity (a.u.)
CCACGGCGCCACGCGCGCGCATCATTACACATCACGTACACGGAGTCACCTAGTGCAG | 8100 fluorescence intensity (a.u.)
CGCACACAGACCAACTGACAGCCTGGACCCACAACTCAGCCGGAGTCACCTAGTGCAG | 8270 fluorescence intensity (a.u.)
TGTTCAGAGTATATACCATTATGATTTTATCTACCGGATCCGGAGTCACCTAGTGCAG | 8360 fluorescence intensity (a.u.)
CTGCTGCCAACCCATCCCCAACACGCAACATCTCTCTGCCCGGAGTCACCTAGTGCAG | 8110 fluorescence intensity (a.u.)
CCATTGTTAGGGTTAAGTCTTATTTCACCACATCGTTTTTCGGAGTCACCTAGTGCAG | 8740 fluorescence intensity (a.u.)
TATCAATTGCTCTTGTCATCTCTGATCTGCCTGCCGCTGCCGGAGTCACCTAGTGCAG | 9070 fluorescence intensity (a.u.)
ATCTTTTTCTACTATCACTATATCATATTCTATTTTTTTTCGGAGTCACCTAGTGCAG | 10500 fluorescence intensity (a.u.)
TCGTGCCTTTTCCCTCGCTGCATATTTATACCGCTACTCACGGAGTCACCTAGTGCAG | 8640 fluorescence intensity (a.u.)
CATTCCACTTTCAAGTTTCAACTAGCCAGGTACAGCATGTCGGAGTCACCTAGTGCAG | 8660 fluorescence intensity (a.u.)
TTTTTTCCTGTTACACGTTTAGCTTATACGTTGGCCTCATCGGAGTCACCTAGTGCAG | 10800 fluorescence intensity (a.u.)
GAGTCCTCCATCGCGTCCCTCATCGACCGCGCCACCTCCACGGAGTCACCTAGTGCAG | 9410 fluorescence intensity (a.u.)
CTTTTTTTTAATGTATTGATGCTTCTTTTCTAGTTTGTACCGGAGTCACCTAGTGCAG | 9060 fluorescence intensity (a.u.)
TGTCATTGGCTTTCCCGCGCTCCCTGCCTTGTCGCTCTCTCGGAGTCACCTAGTGCAG | 10600 fluorescence intensity (a.u.)
ATCTCCAATATACTGTCTTTACAGGTTCTTCGCTGTCTTGCGGAGTCACCTAGTGCAG | 10200 fluorescence intensity (a.u.)
CCTCCGCTTCTTCCTCACGCAGCTCTCGCCTCGCCTCGCCCGGAGTCACCTAGTGCAG | 8620 fluorescence intensity (a.u.)
CCCGCCGCCTGGGTTTCGTGCCGATTTTGATTTCCTTTTTCGGAGTCACCTAGTGCAG | 9050 fluorescence intensity (a.u.)
TCCACCTCGTCCGTCCATCGCGTGGGCCCCACCCCGACCGCGGAGTCACCTAGTGCAG | 8070 fluorescence intensity (a.u.)
TACTATTCCCTCAAGTTCTTCATTTCTTATCATTTTGGACCGGAGTCACCTAGTGCAG | 8310 fluorescence intensity (a.u.)
GTGGCCTCGCCCCGTCCTGTGACTCCTTGGCCCGGCGCGCCGGAGTCACCTAGTGCAG | 12000 fluorescence intensity (a.u.)
TTCTTTGTTGGATTGATGATCGCTTTTGTGTGGGAGAGGTCGGAGTCACCTAGTGCAG | 9380 fluorescence intensity (a.u.)

Sequence | binding signal
GTTAGTTTTTAAGTTCGTTCGCTTTTGGAAATACAGATCCCGGAGTCACCTAGTGCAG | 13500 fluorescence intensity (a.u.)
TGTTAGTATTAGGGTGCTTTTGGGTTTGGGGTTTCTGCCACGGAGTCACCTAGTGCAG | 24200 fluorescence intensity (a.u.)
ACTTTTATGTTGCTTGACGGCAGTCATCAACCCAGCAATACGGAGTCACCTAGTGCAG | 8100 fluorescence intensity (a.u.)
AGTGTGTTCCTCTTCTCTTAGCCCCAAATTTGCGATCCAACGGAGTCACCTAGTGCAG | 10100 fluorescence intensity (a.u.)
TCTTGTTCATATTGTTCAGTTAAAGCAGTTGATCTATTTTCGGAGTCACCTAGTGCAG | 8220 fluorescence intensity (a.u.)
GCCTCCAACCCGCGCATCCTGTGCGCCCGCATCGACCGCTCGGAGTCACCTAGTGCAG | 9340 fluorescence intensity (a.u.)
CTCCGGTCCGTTAGCTCACTCAACCCATCTCCACCCAAATCGGAGTCACCTAGTGCAG | 10100 fluorescence intensity (a.u.)
GGTACGTTATCCGTGCATGAGTCGATTTTTAATTTTGTTCCGGAGTCACCTAGTGCAG | 8650 fluorescence intensity (a.u.)
CTGGCCTCCCCGCCCCGCCGCCGCCGCCGCCGCATCACCCCGGAGTCACCTAGTGCAG | 10400 fluorescence intensity (a.u.)
GCCCGCCGCTATCTGCCTCCATCGTCCACTGATTCCTTCTCGGAGTCACCTAGTGCAG | 8380 fluorescence intensity (a.u.)
TCCCTACACCGTCGCCGTCAGCCGTTGGACATCTAGATCACGGAGTCACCTAGTGCAG | 11900 fluorescence intensity (a.u.)
TGCAGATTTGGTTTTTCTTTTTTTTCGCACGTTCTCTTTCCGGAGTCACCTAGTGCAG | 15700 fluorescence intensity (a.u.)
GACCATCACACGCCCATCGCCAACGGCGGCGGCAGCAGCACGGAGTCACCTAGTGCAG | 8240 fluorescence intensity (a.u.)
TTATTTTGAATTTTATTTTCGTGTTCCAAAGTCAAAATTTCGGAGTCACCTAGTGCAG | 12200 fluorescence intensity (a.u.)
CAGGTGTGACTTGGTTTATTATTAAATGTGTTTTTAGCATCGGAGTCACCTAGTGCAG | 9210 fluorescence intensity (a.u.)
CACTATCTTTTCAATTCTGTATTTTTCGGTCGTTTTAGCACGGAGTCACCTAGTGCAG | 9100 fluorescence intensity (a.u.)
CACTTACACTTTCATTTTCGCTTCATGTAAAATAGTCAACCGGAGTCACCTAGTGCAG | 8980 fluorescence intensity (a.u.)
CCAATACTTTCCTTTATTTTACCAGGCACCATGCTTATTTCGGAGTCACCTAGTGCAG | 8430 fluorescence intensity (a.u.)
AATTATCACTTCAGTACCATCACTTTGTTCATTTCCTTACCGGAGTCACCTAGTGCAG | 11100 fluorescence intensity (a.u.)
TCCCTCATTTGACAAATTATGGCAAACGTTTTGCAACTTCCGGAGTCACCTAGTGCAG | 8340 fluorescence intensity (a.u.)
GCTCATCAGACTCCAAACAACTCACACAGCTCGCACTTTCCGGAGTCACCTAGTGCAG | 9970 fluorescence intensity (a.u.)

Looked up one by one from the list above:
Sequence | binding signal
CTGGCCTCCCCGCCCCGCCGCCGCCGCCGCCGCATCACCCCGGAGTCACCTAGTGCAG | 10400 fluorescence intensity (a.u.)
AATTATCACTTCAGTACCATCACTTTGTTCATTTCCTTACCGGAGTCACCTAGTGCAG | 11100 fluorescence intensity (a.u.)
TCCCTCATTTGACAAATTATGGCAAACGTTTTGCAACTTCCGGAGTCACCTAGTGCAG | 8340 fluorescence intensity (a.u.)
GCCTCCAACCCGCGCATCCTGTGCGCCCGCATCGACCGCTCGGAGTCACCTAGTGCAG | 9340 fluorescence intensity (a.u.)

Next results

Sequence | binding signal
TGCGTCCGAACTTTCACTTACGTTTTCCATATATATAGTTCGGAGTCACCTAGTGCAG | 8130 fluorescence intensity (a.u.)
CTCGCTTTTCTTCCTTTTCCTGCAATTTCTGTTTCGTTTACGGAGTCACCTAGTGCAG | 10100 fluorescence intensity (a.u.)
TTTCCTGTGATCCAATCAAACGACCATTCCTGTGTTTTTTCGGAGTCACCTAGTGCAG | 12200 fluorescence intensity (a.u.)
AGGAGAGAGTAGTACAGATGGCAACAACAATTGATTACAACGGAGTCACCTAGTGCAG | 9560 fluorescence intensity (a.u.)
TGTTGGCCTGATAAGATTTTTCCATTACTCTCTCAGCTGCCGGAGTCACCTAGTGCAG | 10100 fluorescence intensity (a.u.)
GTGTGTGAGTTGCGTGTGCTGTGACAGCTGTCACGGGTTGCGGAGTCACCTAGTGCAG | 8240 fluorescence intensity (a.u.)
TATTCCCAGCTGGTAACTCTATCCATTGACGGCTGTGTTTCGGAGTCACCTAGTGCAG | 9650 fluorescence intensity (a.u.)
CGATGCGTCAGCCGTGAACTCGCAGGTGGAGGGCGGCGGGCGGAGTCACCTAGTGCAG | 9420 fluorescence intensity (a.u.)
CCCTGTGTGATTTGAGATCAGTGTTTGTTTTCTTTGTATACGGAGTCACCTAGTGCAG | 8490 fluorescence intensity (a.u.)
ATGTTCAACTCATTTCGTATTTTCTTTTGTAAGTACTAACCGGAGTCACCTAGTGCAG | 8800 fluorescence intensity (a.u.)
AACTTGGGCACTACCACCACTCGCCTCACACTCACTCGCTCGGAGTCACCTAGTGCAG | 8600 fluorescence intensity (a.u.)
GCCCACCTGGATCACAATGTGCCGTGCTGTCCTCGTCTCTCGGAGTCACCTAGTGCAG | 12000 fluorescence intensity (a.u.)
CCGTATCGTTTACTATTTGTTATTTTCTACTTATTTGTTACGGAGTCACCTAGTGCAG | 9030 fluorescence intensity (a.u.)
CCTACTCGTTCCACTTCTCCATGGCGCAGGCCGTGCTCACCGGAGTCACCTAGTGCAG | 10500 fluorescence intensity (a.u.)
CATGCAGCTTCCTCATTTTAGCCTTTTTCCGAGTTCCGACCGGAGTCACCTAGTGCAG | 9580 fluorescence intensity (a.u.)
ACTGTATTTTTGGATTTCCTCTTCCATGCAATTCCATCGTCGGAGTCACCTAGTGCAG | 10300 fluorescence intensity (a.u.)
ATGGAGTATGTTGGGCCGATAGCCCATTTGCATTAATGGTCGGAGTCACCTAGTGCAG | 8260 fluorescence intensity (a.u.)
GTGGTTCCGCTTATTTTCTAACAGCATTTCTTTTTTTTATCGGAGTCACCTAGTGCAG | 11600 fluorescence intensity (a.u.)
CGCGCCCCGCACCGCGCCGCCGCGAGCCGCAGCCGACTGCCGGAGTCACCTAGTGCAG | 8200 fluorescence intensity (a.u.)
CATAGTATCTGCACTTTTTCCTATGATATTATTTGTGGTTCGGAGTCACCTAGTGCAG | 14700 fluorescence intensity (a.u.)
GATAACGAGGCCTTTTTCCTTTCCCGTTAATATCCATCTTCGGAGTCACCTAGTGCAG | 8840 fluorescence intensity (a.u.)

Sequence | binding signal
ATCTTCCCGTGGAAAACAGTTTGCATGCGTTGTACATGTTCGGAGTCACCTAGTGCAG | 11300 fluorescence intensity (a.u.)
TTCTTGAAACTATTCCATATGGTTTTTTTTAAAAAAATCCCGGAGTCACCTAGTGCAG | 8150 fluorescence intensity (a.u.)
AGTTAGTCAAGCGTATCCTATTTTACGTGCCCGCGCGAATCGGAGTCACCTAGTGCAG | 9610 fluorescence intensity (a.u.)
GGTTGCAATTTGAAGTTGGTGTAACTTTACTGTTTTTTTCCGGAGTCACCTAGTGCAG | 8950 fluorescence intensity (a.u.)
CTACCAAGTACCAACCGAACCTTTTTCTTTTGGCTAATTTCGGAGTCACCTAGTGCAG | 8750 fluorescence intensity (a.u.)
TCGTCGTTGGGTCGCGGTCGTGGCTAAGCCGTTTCCTCAGCGGAGTCACCTAGTGCAG | 8340 fluorescence intensity (a.u.)
ATCCCATCCGGATTGCCACCCAACCAATCGCCATTTGCTTCGGAGTCACCTAGTGCAG | 8530 fluorescence intensity (a.u.)
GATGCCTTATTGTTATACTGTCATGGTTGGTTCGTTTTAACGGAGTCACCTAGTGCAG | 8220 fluorescence intensity (a.u.)
TTCCCCAAATTTTGGGTCATGGATTAGTTTCACGCTTATACGGAGTCACCTAGTGCAG | 8110 fluorescence intensity (a.u.)
TCGCTCGCCGGCAACGAGCGAGGCAGGGTGGGTGGGTGGTCGGAGTCACCTAGTGCAG | 8670 fluorescence intensity (a.u.)
GCTGTCGATGACTTTTTCAGTTGAAATCATTTAGTATTTGCGGAGTCACCTAGTGCAG | 10600 fluorescence intensity (a.u.)
GTCGCTTTTGCAAGTAAACGTCTTGTTACAATCTGCTTTTCGGAGTCACCTAGTGCAG | 9540 fluorescence intensity (a.u.)
GGTTGGGCGTCTCGTCCCGTCTCGTCTCGTCTCCCCACGACGGAGTCACCTAGTGCAG | 8400 fluorescence intensity (a.u.)
CTGTCTCCGCGCGCTCGAGCCGTCTGTCTGCTATGGAAGCCGGAGTCACCTAGTGCAG | 8100 fluorescence intensity (a.u.)
GAAAATCTGTGGGAGGGGAGGGGAGGGGACGAGGGGACAGCGGAGTCACCTAGTGCAG | 19000 fluorescence intensity (a.u.)
AGGTGTCTTGTGTCTGGTGGATTTTGCTTCGGAATGATGGCGGAGTCACCTAGTGCAG | 8640 fluorescence intensity (a.u.)
CCTCCGCCTTAGCATCATATCACTCGCGCCACCCAATTGCCGGAGTCACCTAGTGCAG | 10200 fluorescence intensity (a.u.)
CTTGGTTTATTTTGATTTGCTGACTATAACACTTGATTCTCGGAGTCACCTAGTGCAG | 9570 fluorescence intensity (a.u.)
CAATGAGATTTAATTTATGCACCATTATTTCTTTTTGTACCGGAGTCACCTAGTGCAG | 9350 fluorescence intensity (a.u.)
TCACCACCTGTCCATCCAGCGCGCGCCCGCCCGCCCGCCTCGGAGTCACCTAGTGCAG | 9740 fluorescence intensity (a.u.)
GCGTTTATATGTACAGACACTCAATGAATCGTTATATTCTCGGAGTCACCTAGTGCAG | 9330 fluorescence intensity (a.u.)
